This assay has as its target prohibitin 2 (PHB2) (human). Kind of assay: co-immunoprecipitation from MCF-7 lysate, Western blotting.

Protein sequences, listed by entry. Tags and fused reporters are not part of them. Lines headed by an entry give the natural chain unless they say otherwise; changes in a name come on top.
UniProt Q5TH69: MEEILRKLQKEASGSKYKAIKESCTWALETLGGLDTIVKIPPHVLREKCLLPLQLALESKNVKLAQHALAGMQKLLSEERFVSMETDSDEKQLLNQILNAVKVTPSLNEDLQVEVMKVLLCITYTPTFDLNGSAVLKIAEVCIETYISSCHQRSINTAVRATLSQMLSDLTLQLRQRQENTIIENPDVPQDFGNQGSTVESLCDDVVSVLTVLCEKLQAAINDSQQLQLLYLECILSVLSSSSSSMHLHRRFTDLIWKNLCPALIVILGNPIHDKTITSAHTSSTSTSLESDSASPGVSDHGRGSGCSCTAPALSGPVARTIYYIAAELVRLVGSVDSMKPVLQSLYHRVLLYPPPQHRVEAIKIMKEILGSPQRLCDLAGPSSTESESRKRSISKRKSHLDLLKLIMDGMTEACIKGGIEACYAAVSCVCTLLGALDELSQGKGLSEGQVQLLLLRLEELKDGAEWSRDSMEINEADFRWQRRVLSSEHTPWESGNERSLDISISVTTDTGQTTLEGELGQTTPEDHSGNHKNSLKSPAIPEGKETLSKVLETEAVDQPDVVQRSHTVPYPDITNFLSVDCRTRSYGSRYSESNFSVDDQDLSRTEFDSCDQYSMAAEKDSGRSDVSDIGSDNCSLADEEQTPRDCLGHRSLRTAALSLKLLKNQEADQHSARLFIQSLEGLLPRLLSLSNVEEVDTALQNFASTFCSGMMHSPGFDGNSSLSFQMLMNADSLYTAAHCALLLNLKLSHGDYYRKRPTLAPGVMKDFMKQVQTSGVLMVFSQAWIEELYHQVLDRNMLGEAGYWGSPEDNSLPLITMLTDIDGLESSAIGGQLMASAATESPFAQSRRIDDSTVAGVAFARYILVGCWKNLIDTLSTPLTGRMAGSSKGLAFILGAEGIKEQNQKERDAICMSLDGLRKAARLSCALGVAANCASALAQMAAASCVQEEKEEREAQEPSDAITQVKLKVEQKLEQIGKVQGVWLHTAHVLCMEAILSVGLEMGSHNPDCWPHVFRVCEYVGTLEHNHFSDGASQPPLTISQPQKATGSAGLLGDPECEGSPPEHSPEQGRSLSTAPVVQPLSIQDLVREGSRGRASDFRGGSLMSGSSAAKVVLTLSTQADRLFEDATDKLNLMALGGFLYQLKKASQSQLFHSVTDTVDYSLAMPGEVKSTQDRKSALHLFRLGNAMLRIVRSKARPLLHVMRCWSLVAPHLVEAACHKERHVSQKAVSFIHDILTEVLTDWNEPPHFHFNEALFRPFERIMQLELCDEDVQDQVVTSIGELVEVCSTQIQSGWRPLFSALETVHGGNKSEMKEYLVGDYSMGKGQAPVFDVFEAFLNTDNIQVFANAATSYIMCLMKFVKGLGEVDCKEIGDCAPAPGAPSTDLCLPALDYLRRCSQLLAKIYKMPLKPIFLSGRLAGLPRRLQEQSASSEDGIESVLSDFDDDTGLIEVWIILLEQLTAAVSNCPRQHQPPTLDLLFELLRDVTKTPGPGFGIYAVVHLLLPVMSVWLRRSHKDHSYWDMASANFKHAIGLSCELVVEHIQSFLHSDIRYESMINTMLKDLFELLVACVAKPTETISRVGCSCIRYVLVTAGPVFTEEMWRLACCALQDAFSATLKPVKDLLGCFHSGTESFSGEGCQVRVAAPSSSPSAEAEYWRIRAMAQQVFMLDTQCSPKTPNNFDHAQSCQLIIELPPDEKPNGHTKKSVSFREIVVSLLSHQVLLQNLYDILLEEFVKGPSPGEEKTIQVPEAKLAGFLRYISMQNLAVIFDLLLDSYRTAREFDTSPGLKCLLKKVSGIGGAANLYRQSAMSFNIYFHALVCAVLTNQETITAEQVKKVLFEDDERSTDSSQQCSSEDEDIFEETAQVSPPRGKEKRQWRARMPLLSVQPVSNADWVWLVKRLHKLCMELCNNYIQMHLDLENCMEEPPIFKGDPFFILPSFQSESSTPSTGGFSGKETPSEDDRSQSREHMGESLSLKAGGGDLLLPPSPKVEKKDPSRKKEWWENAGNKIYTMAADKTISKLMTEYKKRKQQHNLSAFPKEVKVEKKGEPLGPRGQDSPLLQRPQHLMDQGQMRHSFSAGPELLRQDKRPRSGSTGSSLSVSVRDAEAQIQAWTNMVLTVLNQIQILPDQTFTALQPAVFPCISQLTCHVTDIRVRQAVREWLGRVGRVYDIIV

No constants are given. Whether binding was seen depends on the method and setting. In cells and extracts the contact can be indirect. Some binding calls cover weakened binding; strength is not graded here.

For the substance “brefeldin A-inhibited guanine nucleotide-exchange protein 3 (BIG3) (from UniProt Q5TH69 1-2177)”, the binding result is given as “binds”.

The values are drawn from patent US20220098256A1 (TOKUSHIMA UNIVERSITY, published 2022).
